## Screening data

Source: PubChem BioAssay AID504749 (NCATS, 2011).

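A panel of P. falciparum strains inside erythrocytes is exposed to compounds for three days, then a DNA-binding dye reports the amount of parasite DNA.
Each compound was titrated across a series from about 0.000037 to 29 µM.
The number is the fitted AC50, the concentration giving a half-maximal change in signal; a lower value means higher potency, whether the curve shows a decrease or an increase.
Calls follow the curve class and fit quality: every row here is inconclusive, covering signal-raising curves and weak, poorly fitted, partial or highest-dose-only inhibition curves.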

Values are in µM.
All entries here are filed as inconclusive.
These entries are mostly ones the record files as inconclusive; other results of the assay are not listed here.
Potencies fitted to partial, single-point or poorly fitting curves are rough.
Some entries filed as inconclusive have a full curve.

O=C(NC(CO)C(O)c1ccc([N+](=O)[O-])cc1)C(Cl)Cl (centres unmarked) [N140] gave fitted potency 10 µM (inhibitor, partial curve).
O=C(NC(CO)C(O)c1ccc([N+](=O)[O-])cc1)C(Cl)Cl (centres unmarked) [CP215] gave fitted potency 1.901 µM (inhibitor, single point).
O=C(NC(CO)C(O)c1ccc([N+](=O)[O-])cc1)C(Cl)Cl (centres unmarked) [3D7] gave fitted potency 1.585 µM (inhibitor, full curve).
O=C(NC(CO)C(O)c1ccc([N+](=O)[O-])cc1)C(Cl)Cl (centres unmarked) [CP185] gave fitted potency 11.22 µM (inhibitor, single point).
O=C(NC(CO)C(O)c1ccc([N+](=O)[O-])cc1)C(Cl)Cl (centres unmarked) [TAB165] gave fitted potency 7.943 µM (inhibitor, partial curve).
O=C(NC(CO)C(O)c1ccc([N+](=O)[O-])cc1)C(Cl)Cl (centres unmarked) [CP192] gave fitted potency 13.46 µM (inhibitor, single point).
O=C(NC(CO)C(O)c1ccc([N+](=O)[O-])cc1)C(Cl)Cl (centres unmarked) [CP265] gave fitted potency 11.22 µM (inhibitor, partial curve, poor fit).
O=C(NC(CO)C(O)c1ccc([N+](=O)[O-])cc1)C(Cl)Cl (centres unmarked) [CP286] gave fitted potency 2.239 µM (inhibitor, full curve).
O=C(NC(CO)C(O)c1ccc([N+](=O)[O-])cc1)C(Cl)Cl (centres unmarked) [CP329] gave fitted potency 5.358 µM (inhibitor, partial curve).
O=C(NC(CO)C(O)c1ccc([N+](=O)[O-])cc1)C(Cl)Cl (centres unmarked) [CP247] gave fitted potency 10 µM (inhibitor, single point).
O=C(NC(CO)C(O)c1ccc([N+](=O)[O-])cc1)C(Cl)Cl (centres unmarked) [CP237] gave fitted potency 8.912 µM (inhibitor, partial curve, poor fit).
O=C(NC(CO)C(O)c1ccc([N+](=O)[O-])cc1)C(Cl)Cl (centres unmarked) [AA1029] gave fitted potency 8.912 µM (inhibitor, partial curve).
O=C(NC(CO)C(O)c1ccc([N+](=O)[O-])cc1)C(Cl)Cl (centres unmarked) [CP266] gave fitted potency 4.776 µM (inhibitor, full curve, poor fit).
O=C(NC(CO)C(O)c1ccc([N+](=O)[O-])cc1)C(Cl)Cl (centres unmarked) [CP262] gave fitted potency 7.569 µM (inhibitor, partial curve).
O=C(NC(CO)C(O)c1ccc([N+](=O)[O-])cc1)C(Cl)Cl (centres unmarked) [TAB109] gave fitted potency 5.623 µM (inhibitor, partial curve).
O=C(NC(CO)C(O)c1ccc([N+](=O)[O-])cc1)C(Cl)Cl (centres unmarked) [CP252] gave fitted potency 3.548 µM (inhibitor, partial curve).
O=C(NC(CO)C(O)c1ccc([N+](=O)[O-])cc1)C(Cl)Cl (centres unmarked) [AS120] gave fitted potency 14.13 µM (inhibitor, partial curve).
O=C(NC(CO)C(O)c1ccc([N+](=O)[O-])cc1)C(Cl)Cl (centres unmarked) [CP238] gave fitted potency 6.31 µM (inhibitor, partial curve).
O=C(NC(CO)C(O)c1ccc([N+](=O)[O-])cc1)C(Cl)Cl (centres unmarked) [TAB113] gave fitted potency 7.943 µM (inhibitor, single point).
O=C(NC(CO)C(O)c1ccc([N+](=O)[O-])cc1)C(Cl)Cl (centres unmarked) [CP260] gave fitted potency 5.012 µM (inhibitor, partial curve).
CCOC(=O)C1=C(C)NC(C)=C(C(=O)OC)C1c1cccc([N+](=O)[O-])c1 (centres unmarked) [CP260] gave fitted potency 11.22 µM (inhibitor, partial curve).
CCOC(=O)C1=C(C)NC(C)=C(C(=O)OC)C1c1cccc([N+](=O)[O-])c1 (centres unmarked) [CP192] gave fitted potency 19.01 µM (inhibitor, single point).
CCOC(=O)C1=C(C)NC(C)=C(C(=O)OC)C1c1cccc([N+](=O)[O-])c1 (centres unmarked) [ECU] gave fitted potency 17.78 µM (inhibitor, single point).
CCOC(=O)C1=C(C)NC(C)=C(C(=O)OC)C1c1cccc([N+](=O)[O-])c1 (centres unmarked) [CP211] gave fitted potency 10.69 µM (inhibitor, partial curve).
CCOC(=O)C1=C(C)NC(C)=C(C(=O)OC)C1c1cccc([N+](=O)[O-])c1 (centres unmarked) [ICS] gave fitted potency 14.13 µM (inhibitor, partial curve, poor fit).
CCOC(=O)C1=C(C)NC(C)=C(C(=O)OC)C1c1cccc([N+](=O)[O-])c1 (centres unmarked) [CP329] gave fitted potency 16.94 µM (inhibitor, partial curve, poor fit).
CCOC(=O)C1=C(C)NC(C)=C(C(=O)OC)C1c1cccc([N+](=O)[O-])c1 (centres unmarked) [CP247] gave fitted potency 14.13 µM (inhibitor, single point).
CCOC(=O)C1=C(C)NC(C)=C(C(=O)OC)C1c1cccc([N+](=O)[O-])c1 (centres unmarked) [CP256] gave fitted potency 4.467 µM (inhibitor, partial curve).
CCOC(=O)C1=C(C)NC(C)=C(C(=O)OC)C1c1cccc([N+](=O)[O-])c1 (centres unmarked) [CP194] gave fitted potency 15.1 µM (inhibitor, single point).

The last 2 entries again:

With CCOC(=O)C1=C(C)NC(C)=C(C(=O)OC)C1c1cccc([N+](=O)[O-])c1 (centres unmarked) [CP256] the assay gave fitted potency 4.467 µM (inhibitor, partial curve).
With CCOC(=O)C1=C(C)NC(C)=C(C(=O)OC)C1c1cccc([N+](=O)[O-])c1 (centres unmarked) [CP194] the assay gave fitted potency 15.1 µM (inhibitor, single point).